This passage reports binding results from paper PMC7694386.

The chains behind the UniProt entries cited, without tags or fusion partners.
UniProt O95817: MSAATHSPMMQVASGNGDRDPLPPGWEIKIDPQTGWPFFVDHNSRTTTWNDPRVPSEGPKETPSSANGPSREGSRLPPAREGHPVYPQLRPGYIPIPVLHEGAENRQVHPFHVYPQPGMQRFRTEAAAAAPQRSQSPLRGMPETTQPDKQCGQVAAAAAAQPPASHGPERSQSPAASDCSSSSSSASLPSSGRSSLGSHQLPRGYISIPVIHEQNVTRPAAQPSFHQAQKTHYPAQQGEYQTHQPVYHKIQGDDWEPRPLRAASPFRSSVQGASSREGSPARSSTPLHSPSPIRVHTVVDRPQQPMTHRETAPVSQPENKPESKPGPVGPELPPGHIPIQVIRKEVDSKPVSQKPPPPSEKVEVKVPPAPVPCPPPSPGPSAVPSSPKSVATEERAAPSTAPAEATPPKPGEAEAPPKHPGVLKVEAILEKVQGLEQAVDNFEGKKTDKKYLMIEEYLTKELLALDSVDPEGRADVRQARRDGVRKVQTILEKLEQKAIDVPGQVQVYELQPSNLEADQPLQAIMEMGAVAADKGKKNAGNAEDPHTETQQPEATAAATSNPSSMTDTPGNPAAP

This experiment concerns the target BAG3 (BCL-2-associated athanogene 3) (human (endogenous in HEK293T)) (UniProt O95817). In words: affinity purification with mass spectrometry; endogenous BAG3 immunoprecipitated with anti-BAG3 antibody and Protein A/G magnetic beads from HEK293T lysate; cells treated with DMSO (basal) or 10 µM MG132 for 6 h; IgG IP (MG132_IgG) as control; label-free quantification, three biological replicates.

No constants are given. Whether binding was seen depends on the method and setting. Binding seen in cells or lysates may run through a third protein. A yes stands for co-enrichment or nearness to the bait. Other partners may have been found.

B1: Lamina-associated polypeptide 2, isoforms beta/gamma (protein, UniProt P42167 1-454)
chain: MPEFLEDPSVLTKDKLKSELVANNVTLPAGEQRKDVYVQLYLQHLTARNRPPLPAGTNSKGPPDFSSDEEREPTPVLGSGAAAAGRSRAAVGRKATKKTDKPRQEDKDDLDVTELTNEDLLDQLVKYGVNPGPIVGTTRKLYEKKLLKLREQGTESRSSTPLPTISSSAENTRQNGSNDSDRYSDNEEDSKIELKLEKREPLKGRAKTPVTLKQRRVEHNQSYSQAGITETEWTSGSSKGGPLQALTRESTRGSRRTPRKRVETSEHFRIDGPVISESTPIAETIMASSNESLVVNRVTGNFKHASPILPITEFSDIPRRAPKKPLTRAEVGEKTEERRVERDILKEMFPYEASTPTGISASCRRPIKGAAGRPLELSDFRMEESFSSKYVPKYVPLADVKSEKTKKGRSIPVWIKILLFVVVAVFLFLVYQAMETNQVNPFSNFLHVDPRKSN
In the case of B1, the binding result was “binds”.

B2: Transmembrane protein 237 (protein, UniProt Q96Q45 1-408)
chain: MRTDSGARLEEGHLRPPRALPPVPSQDDIPLSRPKKKKPRTKNTPASASLEGLAQTAGRRPSEGNEPSTKELKEHPEAPVQRRQKKTRLPLELETSSTQKKSSSSSLLRNENGIDAEPAEEAVIQKPRRKTKKTQPAELQYANELGVEDEDIITDEQTTVEQQSVFTAPTGISQPVGKVFVEKSRRFQAADRSELIKTTENIDVSMDVKPSWTTRDVALTVHRAFRMIGLFSHGFLAGCAVWNIVVIYVLAGDQLSNLSNLLQQYKTLAYPFQSLLYLLLALSTISAFDRIDFAKISVAIRNFLALDPTALASFLYFTALILSLSQQMTSDRIHLYTPSSVNGSLWEAGIEEQILQPWIVVNLVVALLVGLSWLFLSYRPGMDLSEELMFSSEVEEYPDKEKEIKASS
As to B2, the binding entry is listed as “binds”.

B3: WW domain-containing adapter protein with coiled-coil (protein, UniProt Q9BTA9 1-647)
chain: MVMYARKQQRLSDGCHDRRGDSQPYQALKYSSKSHPSSGDHRHEKMRDAGDPSPPNKMLRRSDSPENKYSDSTGHSKAKNVHTHRVRERDGGTSYSPQENSHNHSALHSSNSHSSNPSNNPSKTSDAPYDSADDWSEHISSSGKKYYYNCRTEVSQWEKPKEWLEREQRQKEANKMAVNSFPKDRDYRREVMQATATSGFASGMEDKHSSDASSLLPQNILSQTSRHNDRDYRLPRAETHSSSTPVQHPIKPVVHPTATPSTVPSSPFTLQSDHQPKKSFDANGASTLSKLPTPTSSVPAQKTERKESTSGDKPVSHSCTTPSTSSASGLNPTSAPPTSASAVPVSPVPQSPIPPLLQDPNLLRQLLPALQATLQLNNSNVDISKINEVLTAAVTQASLQSIIHKFLTAGPSAFNITSLISQAAQLSTQAQPSNQSPMSLTSDASSPRSYVSPRISTPQTNTVPIKPLISTPPVSSQPKVSTPVVKQGPVSQSATQQPVTADKQQGHEPVSPRSLQRSSSQRSPSPGPNHTSNSSNASNATVVPQNSSARSTCSLTPALAAHFSENLIKHVQGWPADHAEKQASRLREEAHNMGTIHMSEICTELKNLRSLVRVCEIQATLREQRILFLRQQIKELEKLKNQNSFMV
On to B3, for which the binding result is on record as “binds”.

B4: Dolichyl-diphosphooligosaccharide-protein glycosyltransferase subunit 1 (protein, UniProt P04843 24-607)
chain: ASSEAPPLINEDVKRTVDLSSHLAKVTAEVVLAHLGGGSTSRATSFLLALEPELEARLAHLGVQVKGEDEEENNLEVRETKIKGKSGRFFTVKLPVALDPGAKISVIVETVYTHVLHPYPTQITQSEKQFVVFEGNHYFYSPYPTKTQTMRVKLASRNVESYTKLGNPTRSEDLLDYGPFRDVPAYSQDTFKVHYENNSPFLTITSMTRVIEVSHWGNIAVEENVDLKHTGAVLKGPFSRYDYQRQPDSGISSIRSFKTILPAAAQDVYYRDEIGNVSTSHLLILDDSVEMEIRPRFPLFGGWKTHYIVGYNLPSYEYLYNLGDQYALKMRFVDHVFDEQVIDSLTVKIILPEGAKNIEIDSPYEISRAPDELHYTYLDTFGRPVIVAYKKNLVEQHIQDIVVHYTFNKVLMLQEPLLVVAAFYILFFTVIIYVRLDFSITKDPAAEARMKVACITEQVLTLVNKRIGLYRHFDETVNRYKQSRDISTLNSGKKSLETEHKALTSEIALLQSRLKTEGSDLCDRVSEMQKLDAQVKELVLKSAVEAERLVAGKLKKDTYIENEKLISGKRQELVTKIDHILDAL
For B4, the binding result is on record as “binds”.

B5: Mitogen-activated protein kinase kinase kinase 6 (protein, UniProt O95382 1-1288)
chain: MAGPCPRSGAERAGSCWQDPLAVALSRGRQLAAPPGRGCARSRPLSVVYVLTREPQPGLEPREGTEAEPLPLRCLREACAQVPRPRPPPQLRSLPFGTLELGDTAALDAFYNADVVVLEVSSSLVQPSLFYHLGVRESFSMTNNVLLCSQADLPDLQALREDVFQKNSDCVGSYTLIPYVVTATGRVLCGDAGLLRGLADGLVQAGVGTEALLTPLVGRLARLLEATPTDSCGYFRETIRRDIRQARERFSGPQLRQELARLQRRLDSVELLSPDIIMNLLLSYRDVQDYSAIIELVETLQALPTCDVAEQHNVCFHYTFALNRRNRPGDRAKALSVLLPLVQLEGSVAPDLYCMCGRIYKDMFFSSGFQDAGHREQAYHWYRKAFDVEPSLHSGINAAVLLIAAGQHFEDSKELRLIGMKLGCLLARKGCVEKMQYYWDVGFYLGAQILANDPTQVVLAAEQLYKLNAPIWYLVSVMETFLLYQHFRPTPEPPGGPPRRAHFWLHFLLQSCQPFKTACAQGDQCLVLVLEMNKVLLPAKLEVRGTDPVSTVTLSLLEPETQDIPSSWTFPVASICGVSASKRDERCCFLYALPPAQDVQLCFPSVGHCQWFCGLIQAWVTNPDSTAPAEEAEGAGEMLEFDYEYTETGERLVLGKGTYGVVYAGRDRHTRVRIAIKEIPERDSRFSQPLHEEIALHRRLRHKNIVRYLGSASQGGYLKIFMEEVPGGSLSSLLRSVWGPLKDNESTISFYTRQILQGLGYLHDNHIVHRDIKGDNVLINTFSGLLKISDFGTSKRLAGITPCTETFTGTLQYMAPEIIDQGPRGYGKAADIWSLGCTVIEMATGRPPFHELGSPQAAMFQVGMYKVHPPMPSSLSAEAQAFLLRTFEPDPRLRASAQTLLGDPFLQPGKRSRSPSSPRHAPRPSDAPSASPTPSANSTTQSQTFPCPQAPSQHPPSPPKRCLSYGGTSQLRVPEEPAAEEPASPEESSGLSLLHQESKRRAMLAAVLEQELPALAENLHQEQKQEQGARLGRNHVEELLRCLGAHIHTPNRRQLAQELRALQGRLRAQGLGPALLHRPLFAFPDAVKQILRKRQIRPHWMFVLDSLLSRAVRAALGVLGPEVEKEAVSPRSEELSNEGDSQQSPGQQSPLPVEPEQGPAPLMVQLSLLRAETDRLREILAGKEREYQALVQRALQRLNEEARTYVLAPEPPTALSTDQGLVQWLQELNVDSGTIQMLLNHSFTLHTLLTYATRDDLIYTRIRGGMVCRIWRAILAQRAGSTPVTSGP
Take B5: the binding result is “binds”.

B6: RNA-binding protein 34 (protein, UniProt P42696 1-430)
chain: MALEGMSKRKRKRSVQEGENPDDGVRGSPPEDYRLGQVASSLFRGEHHSRGGTGRLASLFSSLEPQIQPVYVPVPKQTIKKTKRNEEEESTSQIERPLSQEPAKKVKAKKKHTNAEKKLADRESALASADLEEEIHQKQGQKRKNSQPGVKVADRKILDDTEDTVVSQRKKIQINQEEERLKNERTVFVGNLPVTCNKKKLKSFFKEYGQIESVRFRSLIPAEGTLSKKLAAIKRKIHPDQKNINAYVVFKEESAATQALKRNGAQIADGFRIRVDLASETSSRDKRSVFVGNLPYKVEESAIEKHFLDCGSIMAVRIVRDKMTGIGKGFGYVLFENTDSVHLALKLNNSELMGRKLRVMRSVNKEKFKQQNSNPRLKNVSKPKQGLNFTSKTAEGHPKSLFIGEKAVLLKTKKKGQKKSGRPKKQRKQK
Consider B6, for which the binding result was “binds”.

B7: Tryptophan--tRNA ligase, cytoplasmic (protein, UniProt P23381 1-471)
chain: MPNSEPASLLELFNSIATQGELVRSLKAGNASKDEIDSAVKMLVSLKMSYKAAAGEDYKADCPPGNPAPTSNHGPDATEAEEDFVDPWTVQTSSAKGIDYDKLIVRFGSSKIDKELINRIERATGQRPHHFLRRGIFFSHRDMNQVLDAYENKKPFYLYTGRGPSSEAMHVGHLIPFIFTKWLQDVFNVPLVIQMTDDEKYLWKDLTLDQAYSYAVENAKDIIACGFDINKTFIFSDLDYMGMSSGFYKNVVKIQKHVTFNQVKGIFGFTDSDCIGKISFPAIQAAPSFSNSFPQIFRDRTDIQCLIPCAIDQDPYFRMTRDVAPRIGYPKPALLHSTFFPALQGAQTKMSASDPNSSIFLTDTAKQIKTKVNKHAFSGGRDTIEEHRQFGGNCDVDVSFMYLTFFLEDDDKLEQIRKDYTSGAMLTGELKKALIEVLQPLIAEHQARRKEVTDEIVKEFMTPRKLSFDFQ
B7: the binding entry is “binds”.

B8: Leucine-rich repeat flightless-interacting protein 1 (protein, UniProt Q32MZ4 1-808)
chain: MTSPAAAQSREIDCLSPEAQKLAEARLAAKRAARAEAREIRMKELERQQKEEDSERYSRRSRRNTSASDEDERMSVGSRGSLRVEERPEKDFTEKGSRNMPGLSAATLASLGGTSSRRGSGDTSISIDTEASIREIKELNELKDQIQDVEGKYMQGLKEMKDSLAEVEEKYKKAMVSNAQLDNEKTNFMYQVDTLKDMLLELEEQLAESRRQYEEKNKEFEREKHAHSILQFQFAEVKEALKQREEMLEKHGIILNSEIATNGETSDTLNNVGYQGPTKMTKEELNALKSTGDGTLGRASEVEVKNEIVANVGKREILHNTEKEQHTEDTVKDCVDIEVFPAGENTEDQKSSEDTAPFLGTLAGATYEEQVQSQILESSSLPENTVQVESNEVMGAPDDRTRTPLEPSNCWSDLDGGNHTENVGEAAVTQVEEQAGTVASCPLGHSDDTVYHDDKCMVEVPQELETSTGHSLEKEFTNQEAAEPKEVPAHSTEVGRDHNEEEGEETGLRDEKPIKTEVPGSPAGTEGNCQEATGPSTVDTQNEPLDMKEPDEEKSDQQGEALDSSQKKTKNKKKKNKKKKSPVPVETLKDVKKELTYQNTDLSEIKEEEQVKSTDRKSAVEAQNEVTENPKQKIAAESSENVDCPENPKIKLDGKLDQEGDDVQTAAEEVLADGDTLDFEDDTVQSSGPRAGGEELDEGVAKDNAKIDGATQSSPAEPKSEDADRCTLPEHESPSQDISDACEAESTERCEMSEHPSQTVRKALDSNSLENDDLSAPGREPGHFNPESREDTRGGNEKGKSKEDCTMS
With B8, the binding entry is “binds”.

B9: Leucine-rich repeat flightless-interacting protein 2 (protein, UniProt Q9Y608 1-721)
chain: MGTPASGRKRTPVKDRFSAEDEALSNIAREAEARLAAKRAARAEARDIRMRELERQQKEYSLHSFDRKWGQIQKWLEDSERARYSHRSSHHRPYLGVEDALSIRSVGSHRYDMFKDRSSRLSSLNHSYSHSHGMKKRSSDSHKDLLSGLYFDQRNYSSLRHSKPTSAYYTRQSSSLYSDPLATYKSDRASPTANSGLLRSASLASLYNGGLYNPYGPRTPSECSYYSSRISSARSSPGFTNDDTASIVSSDRASRGRRESVVSAADYFSRSNRRGSVVSEVDDISIPDLSSLDEKSDKQYAENYTRPSSRNSASATTPLSGNSSRRGSGDTSSLIDPDTSLSELRDIYDLKDQIQDVEGRYMQGLKELKESLSEVEEKYKKAMVSNAQLDNEKNNLIYQVDTLKDVIEEQEEQMAEFYRENEEKSKELERQKHMCSVLQHKMEELKEGLRQRDELIEEKQRMQQKIDTMTKEVFDLQETLLWKDKKIGALEKQKEYIACLRNERDMLREELADLQETVKTGEKHGLVIIPDGTPNGDVSHEPVAGAITVVSQEAAQVLESAGEGPLDVRLRKLAGEKEELLSQIRKLKLQLEEERQKCSRNDGTVGDLAGLQNGSDLQFIEMQRDANRQISEYKFKLSKAEQDITTLEQSISRLEGQVLRYKTAAENAEKVEDELKAEKRKLQRELRTALDKIEEMEMTNSHLAKRLEKMKANRTALLAQQ
For the molecule B9, the binding result is “binds”.
